Reference: article PMC5065315
These are yes or no findings as the source states them, for the method shown. For some of these results: In cells and extracts the contact can be indirect. Some entries that bind do so weakly or less than the wild type.

The chains behind the UniProt entries cited, without tags or fusion partners.
UniProt Q9CQJ4: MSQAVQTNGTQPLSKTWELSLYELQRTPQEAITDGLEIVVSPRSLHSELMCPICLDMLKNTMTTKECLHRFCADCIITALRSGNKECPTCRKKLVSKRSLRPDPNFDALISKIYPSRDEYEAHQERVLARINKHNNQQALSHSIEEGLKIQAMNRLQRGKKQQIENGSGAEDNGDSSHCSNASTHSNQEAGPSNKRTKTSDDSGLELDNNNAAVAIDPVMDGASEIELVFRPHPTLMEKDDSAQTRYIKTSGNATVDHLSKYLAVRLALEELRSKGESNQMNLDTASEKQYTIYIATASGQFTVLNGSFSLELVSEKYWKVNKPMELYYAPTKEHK
UniProt Q8CGN4: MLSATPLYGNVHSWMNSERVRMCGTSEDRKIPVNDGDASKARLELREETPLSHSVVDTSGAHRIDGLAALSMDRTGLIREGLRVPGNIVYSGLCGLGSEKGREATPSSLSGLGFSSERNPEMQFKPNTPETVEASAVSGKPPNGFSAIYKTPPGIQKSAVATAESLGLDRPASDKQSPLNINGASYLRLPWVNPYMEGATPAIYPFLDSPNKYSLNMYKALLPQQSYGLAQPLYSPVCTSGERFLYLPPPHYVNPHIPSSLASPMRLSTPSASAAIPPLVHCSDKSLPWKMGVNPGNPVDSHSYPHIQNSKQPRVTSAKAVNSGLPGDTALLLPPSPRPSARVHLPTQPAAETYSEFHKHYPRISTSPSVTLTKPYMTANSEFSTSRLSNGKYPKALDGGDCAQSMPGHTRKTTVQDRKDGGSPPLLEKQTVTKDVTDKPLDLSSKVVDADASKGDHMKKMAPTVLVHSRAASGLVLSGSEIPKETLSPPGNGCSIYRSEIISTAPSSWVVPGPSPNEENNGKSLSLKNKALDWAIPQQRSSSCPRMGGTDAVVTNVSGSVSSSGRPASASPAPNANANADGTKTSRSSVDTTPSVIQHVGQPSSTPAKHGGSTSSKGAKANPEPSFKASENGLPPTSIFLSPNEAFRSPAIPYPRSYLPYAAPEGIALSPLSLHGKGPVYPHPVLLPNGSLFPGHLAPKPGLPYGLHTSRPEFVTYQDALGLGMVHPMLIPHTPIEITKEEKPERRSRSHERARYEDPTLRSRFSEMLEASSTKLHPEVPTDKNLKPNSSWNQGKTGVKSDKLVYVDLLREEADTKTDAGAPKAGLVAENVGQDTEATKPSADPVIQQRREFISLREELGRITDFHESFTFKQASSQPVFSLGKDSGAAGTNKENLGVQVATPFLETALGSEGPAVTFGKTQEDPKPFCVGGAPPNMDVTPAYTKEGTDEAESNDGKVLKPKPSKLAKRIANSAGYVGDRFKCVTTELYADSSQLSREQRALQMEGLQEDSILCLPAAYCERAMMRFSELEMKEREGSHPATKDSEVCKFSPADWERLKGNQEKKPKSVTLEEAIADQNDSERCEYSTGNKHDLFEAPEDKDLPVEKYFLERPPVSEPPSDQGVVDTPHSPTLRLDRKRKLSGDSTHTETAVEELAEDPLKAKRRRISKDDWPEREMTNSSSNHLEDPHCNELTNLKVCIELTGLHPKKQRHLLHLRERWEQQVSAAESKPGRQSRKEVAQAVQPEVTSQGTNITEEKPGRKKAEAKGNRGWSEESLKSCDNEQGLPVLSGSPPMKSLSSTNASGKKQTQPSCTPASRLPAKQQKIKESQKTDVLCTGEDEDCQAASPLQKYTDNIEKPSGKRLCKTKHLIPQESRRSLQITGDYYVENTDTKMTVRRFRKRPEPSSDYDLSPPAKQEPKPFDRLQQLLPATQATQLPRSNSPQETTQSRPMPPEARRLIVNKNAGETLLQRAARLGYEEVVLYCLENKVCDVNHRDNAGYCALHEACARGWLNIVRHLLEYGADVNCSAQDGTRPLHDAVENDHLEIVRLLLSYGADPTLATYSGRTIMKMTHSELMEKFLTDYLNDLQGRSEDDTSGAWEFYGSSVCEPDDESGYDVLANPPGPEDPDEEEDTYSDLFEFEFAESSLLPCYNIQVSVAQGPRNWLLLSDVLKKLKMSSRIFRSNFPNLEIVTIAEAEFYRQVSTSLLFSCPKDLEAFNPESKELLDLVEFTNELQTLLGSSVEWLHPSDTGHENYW

Experiments:
PCGF1 (mouse) = molecular target: T1, PCGF1 (mouse) (UniProt Q8R023); assay: cross-linking; 30 ug of the affinity-purified five-component PCGF1-PRC1 holocomplex cross-linked with BS3 for 30 min at 37 C; trypsin digest, LC-MS/MS, XQuest, confidence score cut-off > 15; both purified
T1 sequence: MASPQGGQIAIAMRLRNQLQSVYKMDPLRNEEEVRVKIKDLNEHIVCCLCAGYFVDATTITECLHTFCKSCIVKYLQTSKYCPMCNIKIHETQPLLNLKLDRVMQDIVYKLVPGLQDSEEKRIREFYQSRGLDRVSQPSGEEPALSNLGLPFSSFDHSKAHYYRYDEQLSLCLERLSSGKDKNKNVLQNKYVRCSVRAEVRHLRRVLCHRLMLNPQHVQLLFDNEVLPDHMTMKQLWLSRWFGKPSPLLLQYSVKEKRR

RYBP (mouse) = molecular target: T2, RYBP (mouse) (UniProt Q8CCI5); assay: as above
T2 sequence: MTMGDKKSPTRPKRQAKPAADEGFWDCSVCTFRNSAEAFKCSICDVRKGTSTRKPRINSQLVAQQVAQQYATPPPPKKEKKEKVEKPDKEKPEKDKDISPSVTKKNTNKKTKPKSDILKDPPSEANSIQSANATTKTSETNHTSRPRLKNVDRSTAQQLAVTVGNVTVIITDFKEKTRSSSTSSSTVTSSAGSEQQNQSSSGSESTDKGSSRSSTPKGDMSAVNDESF

RING1B (mouse) [1] = molecular target: RING1B (mouse) (UniProt Q9CQJ4); assay: cross-linking; affinity-purified RYBP-PCGF1-RING1B trimer (compared with the PCGF1-RING1B dimer) cross-linked with BS3 for 30 min at 37 C; trypsin digest, LC-MS/MS, XQuest; both purified
RING1B (mouse) [2] = molecular target: RING1B (mouse) (UniProt Q9CQJ4); assay: pull-down; sub-complexes: co-expression vectors in which individual proteins were omitted (or PCGF4 with RING1B); affinity-purified via FLAG-RING1B on FLAG affinity resin; Coomassie-stained gel
RING1B (mouse) [3] = molecular target: RING1B (mouse) (UniProt Q9CQJ4); assay: cross-linking; 30 ug of the affinity-purified five-component PCGF1-PRC1 holocomplex cross-linked with BS3 for 30 min at 37 C; trypsin digest, LC-MS/MS, XQuest, confidence score cut-off > 15; both purified
RING1B (mouse) [4] = molecular target: RING1B (mouse) (UniProt Q9CQJ4); assay: pull-down; five proteins (RING1B, PCGF1, RYBP, KDM2B, BCOR) co-expressed by baculovirus in SF21 cells; extract bound to FLAG affinity resin via FLAG-RING1B, washed with 150 mM NaCl buffer, eluted with FLAG peptide; Coomassie-stained gel

BCOR (from UniProt Q8CGN4 1-1759)
binding (PCGF1 (mouse)): binds
binding (RYBP (mouse)): binds

B1: RYBP (protein, UniProt Q8CCI5 1-228)
chain: MTMGDKKSPTRPKRQAKPAADEGFWDCSVCTFRNSAEAFKCSICDVRKGTSTRKPRINSQLVAQQVAQQYATPPPPKKEKKEKVEKPDKEKPEKDKDISPSVTKKNTNKKTKPKSDILKDPPSEANSIQSANATTKTSETNHTSRPRLKNVDRSTAQQLAVTVGNVTVIITDFKEKTRSSSTSSSTVTSSAGSEQQNQSSSGSESTDKGSSRSSTPKGDMSAVNDESF
binding (RING1B (mouse) [1]): binds
binding (RING1B (mouse) [2]): binds
binding (RING1B (mouse) [3]): binds
binding (RING1B (mouse) [4]): binds

B2: PCGF4 (protein, UniProt P25916 1-324)
chain: MHRTTRIKITELNPHLMCVLCGGYFIDATTIIECLHSFCKTCIVRYLETSKYCPICDVQVHKTRPLLNIRSDKTLQDIVYKLVPGLFKNEMKRRRDFYAAHPSADAANGSNEDRGEVADEEKRIITDDEIISLSIEFFDQSRLDRKVNKEKPKEEVNDKRYLRCPAAMTVMHLRKFLRSKMDIPNTFQIDVMYEEEPLKDYYTLMDIAYIYTWRRNGPLPLKYRVRPTCKRMKMSHQRDGLTNAGELESDSGSDKANSPAGGVPSTSSCLPSPSTPVQSPHPQFPHISSTMNGTSNSPSANHQSSFASRPRKSSLNGSSATSSG
binding (RING1B (mouse) [2]): binds
